Residue numbers refer to the chain shown, from its start. Results are given in words; binding and its absence hold for the method and conditions named. Some results given as binding are weak or reduced against the parent protein; the word gives no strength.

Our source for the binding values is patent US20250109212A1.

The experiment addresses cynomolgus CD47-his protein (Cat #: CD7-C52H1, Acro biosystems) (cynomolgus). Briefly: SPR (Biacore).

B1: BSI038×S-004 (bispecific antibody, human IgG2, kappa)
heavy: EEELQVIQPDKSVSVAAGESAILHCTITSLIPVGPIQWFRGAGPARELIYNQREGHFPRVTTVSETTKRENMDFSISISNITPADAGTYYCVKFRKGSPDTEFKSGAGTELSVRAKPSAPVVSGPAARATPGGGGSGGGGSEVQLVESGGGLVKPGGSLRLSCAASGFTFSNYGISWVRQAPGKGLEWVSSISSGGDNTYYPDNVKGRFTISRDNAKNSLYLQMNSLRAEDTAVYYCARAGEKAMDYWGQGTLVTVSSASTKGPSVFPLAPCSRSTSESTAALGCLVKDYFPEPVTVSWNSGALTSGVHTFPAVLQSSGLYSLSSVVTVPSSNFGTQTYTCNVDHKPSNTKVDKTVERKCCVECPPCPAPPVAGPSVFLFPPKPKDTLMISRTPEVTCVVVDVSHEDPEVQFNWYVDGVEVHNAKTKPREEQFNSTFRVVSVLTVVHQDWLNGKEYKCKVSNKGLPAPIEKTISKTKGQPREPQVYTLPPSREEMTKNQVSLTCLVKGFYPSDIAVEWESNGQPENNYKTTPPMLDSDGSFFLYSKLTVDKSRWQQGNVFSCSVMHEALHNHYTQKSLSLSPGK
light: EIVLTQSPATLSLSPGERATLSCRASQTINNNLHWYQQKPGQAPRLLIKYASQSISGIPARFSGSGSGTDFTLTISSLEPEDFAVYFCQQFSSWPLTFGGGTKVEIKRTVAAPSVFIFPPSDEQLKSGTASVVCLLNNFYPREAKVQWKVDNALQSGNSQESVTEQDSKDSTYSLSSTLTLSKADYEKHKVYACEVTHQGLSSPVTKSFNRGEC
Regarding B1, the binding result is listed as “binds”.

B2: BSI038×S-005 (bispecific antibody, human IgG2, kappa)
heavy: B1 heavy with K68R, F103V
light: B1 light
For B2, the binding result is “binds”.
